Laboratory results taken from PubChem BioAssay AID687031 (Broad Institute, 2013).
Out of some 1,400 compounds screened, about 50 (4%) were called active.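 How the source made its calls: active means fitted curve reaches 30% CPE protection at or below the top valid dose, with every test run called active; inconclusive means test runs disagree, some active and some not; inactive means every test run inactive, including effects in the wrong direction.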 The list shows a part of the results. Results with a measured potency or affinity are listed apart.

Experiment: antiviral rescue of DENV2-infected BHK-21 cells – cell-based, ATP luminescence, cherry-pick, dose response (AID 687031);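 further: 0% = infected DMSO wells and 100% = uninfected cell wells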
Conditions: BHK-21 DENV2 CPE protection, 5 d; at 19.5 µM (top of the series) unless noted

CPE protection (higher = active), inactive:
CN(Cc1ccccc1)CC1CCCN(CCc2ccccc2F)C1 (stereo not given) 3.08%
CN(C)CC(=O)N1[C@H](CO)[C@@H](c2ccccc2)C12CN(C(=O)c1ccccc1)C2 -2.58%
CCCN1CCC(NC(=O)CC2C(=O)NCCN2Cc2cccc(OC)c2)CC1 (stereo not given) 7.2%
NS(=O)(=O)c1ccc(CCNC(=O)C2CCCN2C(=O)c2cccs2)cc1 (stereo not given) -11.5%
Cn1c(=O)n(C)c2cc(N3CCOCC3)c(NC(=O)c3ccc(F)cc3)cc21 21.4%
COc1cccc(NC(=O)CN(C)C(=O)CCCc2nc3ccccc3s2)c1 14.9%
Cc1ccc(S(=O)(=O)N2CCCNCC2)cc1 6.68%
COc1cccc(C(NC(C)=O)c2nc(/C=C/c3ccccc3)cs2)c1 (stereo not given) -2.97%
COc1ccc2o/c(=N\O)c(C(=O)Nc3ccc(C)cc3)cc2c1 21.5%
O=C(c1ccc(Cl)cc1)N1CCc2c([nH]c3ccccc23)C1C(F)(F)F (stereo not given) -6.34%
CCCCCNC(=O)c1[nH]c(C(F)(F)F)nc1-c1ccccc1 20.9%
O=C([C@@H]1[C@@H](CO)[C@@H]2Cn3c(cccc3=O)[C@H]1N2C(=O)CC1CC1)N1CCCCC1 3.41%
Cc1cc(=O)oc2cc(OCCSCCN3CCCC3)ccc12 -9.74%
CO[C@H]1CN(C)C(=O)c2cc(NC(=O)c3ccccc3F)ccc2OC[C@H](C)N(CC2CCOCC2)C[C@H]1C -20.3%
Cc1ccc(NC(=O)c2ccc3c(c2)OCO3)cc1Cl -1.6%
O=C(Cc1cn(Cc2ccccc2)c2ccccc12)Nc1ccc(Oc2cccnc2)cc1 -6.28%
Cc1cccc(C)c1-n1nnnc1C1(C)CCC(=O)N1Cc1cccs1 (stereo not given) -20.3%
CS(=O)(=O)N1[C@@H]2CNC[C@H]1C2c1ccc(-c2ccccc2)cc1 (stereo not given in full) 1.08%
Cc1cccc(Cl)c1OCCN1CCCC1 -1.01%
Cc1ccccc1S(=O)(=O)N1[C@H](C#N)[C@H](c2ccccc2)[C@@H]1CO 7.31% [at 21 µM]
Cc1cccc(N(CC(=O)NC(C)(C)C)C(=O)CNC(=O)c2cccs2)c1C -10.1%
Cc1ccc(S(=O)(=O)N(C)C)cc1NC(=O)COC(=O)C1CCCC1 -13.6%
CNc1nc(Oc2cccc(NC(C)=O)c2)c2sccc2n1 6.08%
NC(=O)C1CCN(C(=O)C2(NC(=O)Nc3cccc(F)c3)CCCCC2)CC1 11.9%
Cc1cc(O)c(C(C)C)cc1NC(=O)c1ccccc1Cl -6.87%

Part of the list above in order of number of heavy atoms, descending.
CPE protection (higher = active), inactive:
CCCN1CCC(NC(=O)CC2C(=O)NCCN2Cc2cccc(OC)c2)CC1 (stereo not given) 7.2%
Cc1cccc(N(CC(=O)NC(C)(C)C)C(=O)CNC(=O)c2cccs2)c1C -10.1%
Cc1cc(=O)oc2cc(OCCSCCN3CCCC3)ccc12 -9.74%
